PMC10558571
Results are given in words; binding and its absence hold for the method and conditions named. In cells and extracts the contact can be indirect. Some binding calls cover weakened binding; strength is not graded here.

By UniProt entry, the sequences of proteins in these tests, tags left out.
UniProt P11413: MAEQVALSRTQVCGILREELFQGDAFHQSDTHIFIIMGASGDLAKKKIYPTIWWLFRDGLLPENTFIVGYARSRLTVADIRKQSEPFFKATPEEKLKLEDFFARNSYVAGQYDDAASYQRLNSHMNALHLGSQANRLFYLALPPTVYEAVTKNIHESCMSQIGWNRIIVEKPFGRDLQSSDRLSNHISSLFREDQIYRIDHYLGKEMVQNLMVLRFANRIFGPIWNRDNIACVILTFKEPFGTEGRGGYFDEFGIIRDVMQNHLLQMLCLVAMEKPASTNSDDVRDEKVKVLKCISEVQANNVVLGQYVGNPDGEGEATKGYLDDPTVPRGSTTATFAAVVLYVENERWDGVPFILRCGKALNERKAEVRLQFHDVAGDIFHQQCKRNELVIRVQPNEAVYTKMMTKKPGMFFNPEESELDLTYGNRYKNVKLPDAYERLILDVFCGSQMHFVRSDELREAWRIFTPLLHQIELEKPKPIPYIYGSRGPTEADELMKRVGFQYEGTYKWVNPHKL
UniProt P11142: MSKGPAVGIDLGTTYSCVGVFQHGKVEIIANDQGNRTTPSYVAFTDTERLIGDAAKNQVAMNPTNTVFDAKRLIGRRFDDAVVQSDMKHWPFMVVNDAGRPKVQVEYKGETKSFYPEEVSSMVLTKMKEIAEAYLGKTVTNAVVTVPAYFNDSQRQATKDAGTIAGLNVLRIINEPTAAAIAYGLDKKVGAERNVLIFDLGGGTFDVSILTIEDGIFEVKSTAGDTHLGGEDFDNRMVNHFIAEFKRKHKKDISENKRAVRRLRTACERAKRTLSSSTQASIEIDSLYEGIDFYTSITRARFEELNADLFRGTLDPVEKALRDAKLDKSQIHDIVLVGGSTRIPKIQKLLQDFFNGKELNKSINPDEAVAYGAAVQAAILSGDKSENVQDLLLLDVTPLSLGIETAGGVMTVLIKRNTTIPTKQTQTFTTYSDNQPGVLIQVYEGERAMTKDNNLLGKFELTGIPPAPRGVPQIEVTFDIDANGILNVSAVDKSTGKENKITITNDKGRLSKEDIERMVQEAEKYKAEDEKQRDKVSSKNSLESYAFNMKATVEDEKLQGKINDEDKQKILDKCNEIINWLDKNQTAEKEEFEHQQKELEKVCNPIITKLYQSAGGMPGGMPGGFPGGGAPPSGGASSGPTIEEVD

Molecular target: Glucose-6-phosphate dehydrogenase (G6PD), 3×flag-tagged, overexpressed in SBC2 cells (UniProt P11413)
Experiment: co-IP; whole cell lysates of SBC2 cells with G6PD overexpression, anti-Flag antibody (mouse) or anti-IgG antibody (mouse), 12 h at 4 °C, washed three times with TBS, immunoblotting; cells with or without GSK2126458

binding: binds
Substance: HSPA8/HSC70 (from UniProt P11142 1-646)
